doi:10.1101/500082
These are yes or no findings as the source states them, for the method shown. In cells and extracts the contact can be indirect. Some binding calls cover weakened binding; strength is not graded here. Tags and fused reporters may be left off the sequences shown.

Chains of the proteins cited; added tags and fusions are not shown.
UniProt P16157: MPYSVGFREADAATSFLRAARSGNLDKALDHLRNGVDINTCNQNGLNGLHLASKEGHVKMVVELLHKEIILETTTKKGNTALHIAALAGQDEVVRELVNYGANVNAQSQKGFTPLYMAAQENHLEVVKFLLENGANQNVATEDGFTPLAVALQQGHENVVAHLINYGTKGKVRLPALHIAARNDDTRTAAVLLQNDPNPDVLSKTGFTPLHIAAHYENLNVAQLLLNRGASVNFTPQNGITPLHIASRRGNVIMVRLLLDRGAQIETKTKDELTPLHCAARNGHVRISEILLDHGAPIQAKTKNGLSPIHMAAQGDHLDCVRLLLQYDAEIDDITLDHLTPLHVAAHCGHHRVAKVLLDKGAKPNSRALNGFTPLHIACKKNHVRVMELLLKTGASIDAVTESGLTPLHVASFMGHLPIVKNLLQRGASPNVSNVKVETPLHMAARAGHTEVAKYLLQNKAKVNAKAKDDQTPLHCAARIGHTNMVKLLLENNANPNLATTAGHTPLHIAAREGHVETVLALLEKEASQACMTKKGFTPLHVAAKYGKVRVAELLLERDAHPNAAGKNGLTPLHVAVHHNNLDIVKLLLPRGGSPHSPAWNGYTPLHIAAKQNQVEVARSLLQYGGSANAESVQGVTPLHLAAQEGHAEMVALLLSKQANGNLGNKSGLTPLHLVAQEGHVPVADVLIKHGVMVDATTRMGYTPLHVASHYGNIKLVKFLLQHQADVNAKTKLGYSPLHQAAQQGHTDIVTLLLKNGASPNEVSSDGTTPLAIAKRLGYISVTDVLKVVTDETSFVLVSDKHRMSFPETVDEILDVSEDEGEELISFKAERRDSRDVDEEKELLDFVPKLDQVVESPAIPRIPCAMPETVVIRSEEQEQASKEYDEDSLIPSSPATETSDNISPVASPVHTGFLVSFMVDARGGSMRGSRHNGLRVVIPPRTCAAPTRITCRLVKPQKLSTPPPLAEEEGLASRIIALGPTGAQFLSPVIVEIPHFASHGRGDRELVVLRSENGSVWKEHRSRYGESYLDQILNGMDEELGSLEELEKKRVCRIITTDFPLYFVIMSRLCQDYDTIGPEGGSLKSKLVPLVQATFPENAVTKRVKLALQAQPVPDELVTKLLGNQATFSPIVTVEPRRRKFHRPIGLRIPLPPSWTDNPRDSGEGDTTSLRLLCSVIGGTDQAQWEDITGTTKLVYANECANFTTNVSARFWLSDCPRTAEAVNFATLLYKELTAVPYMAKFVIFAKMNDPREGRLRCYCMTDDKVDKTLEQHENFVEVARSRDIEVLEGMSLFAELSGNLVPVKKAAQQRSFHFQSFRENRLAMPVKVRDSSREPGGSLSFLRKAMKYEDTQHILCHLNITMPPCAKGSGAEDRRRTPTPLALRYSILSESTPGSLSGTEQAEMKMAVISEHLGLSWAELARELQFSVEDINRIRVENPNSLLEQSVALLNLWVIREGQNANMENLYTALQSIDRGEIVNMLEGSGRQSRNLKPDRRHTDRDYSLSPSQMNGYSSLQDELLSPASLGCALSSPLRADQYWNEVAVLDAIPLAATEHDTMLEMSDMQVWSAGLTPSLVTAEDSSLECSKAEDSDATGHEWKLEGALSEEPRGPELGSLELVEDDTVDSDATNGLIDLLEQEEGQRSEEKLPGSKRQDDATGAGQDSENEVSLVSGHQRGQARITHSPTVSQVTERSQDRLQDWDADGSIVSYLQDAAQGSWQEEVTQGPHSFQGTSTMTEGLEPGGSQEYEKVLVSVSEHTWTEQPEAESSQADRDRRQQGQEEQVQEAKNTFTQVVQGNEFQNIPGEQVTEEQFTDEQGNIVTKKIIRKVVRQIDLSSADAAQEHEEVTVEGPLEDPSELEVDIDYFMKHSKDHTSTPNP

T1: GFP-Rabenosyn-5 (human) (UniProt Q9H1K0)
T1 sequence: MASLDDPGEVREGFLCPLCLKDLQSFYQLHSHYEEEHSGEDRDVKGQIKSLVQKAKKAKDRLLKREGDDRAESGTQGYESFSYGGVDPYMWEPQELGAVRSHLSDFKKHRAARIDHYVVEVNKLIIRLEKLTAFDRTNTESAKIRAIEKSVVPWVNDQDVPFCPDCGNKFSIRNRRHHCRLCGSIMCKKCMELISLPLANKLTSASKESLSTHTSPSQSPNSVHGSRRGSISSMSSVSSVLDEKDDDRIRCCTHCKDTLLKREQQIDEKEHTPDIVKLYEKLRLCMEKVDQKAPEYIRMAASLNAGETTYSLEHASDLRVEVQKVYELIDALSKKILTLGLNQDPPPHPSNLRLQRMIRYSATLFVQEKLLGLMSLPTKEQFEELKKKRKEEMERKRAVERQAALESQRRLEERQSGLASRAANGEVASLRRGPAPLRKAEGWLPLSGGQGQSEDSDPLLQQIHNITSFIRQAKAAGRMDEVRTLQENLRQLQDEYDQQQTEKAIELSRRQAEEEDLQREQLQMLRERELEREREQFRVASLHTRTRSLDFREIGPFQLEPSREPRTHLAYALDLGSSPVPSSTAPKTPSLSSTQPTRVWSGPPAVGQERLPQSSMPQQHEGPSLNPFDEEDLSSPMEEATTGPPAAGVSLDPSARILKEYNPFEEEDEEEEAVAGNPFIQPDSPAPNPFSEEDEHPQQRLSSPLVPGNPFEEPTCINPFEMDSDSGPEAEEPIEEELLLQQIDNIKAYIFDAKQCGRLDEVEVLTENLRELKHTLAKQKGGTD

T2: VPS33B-Myc-DDK (human) (UniProt Q9H267)
T2 sequence: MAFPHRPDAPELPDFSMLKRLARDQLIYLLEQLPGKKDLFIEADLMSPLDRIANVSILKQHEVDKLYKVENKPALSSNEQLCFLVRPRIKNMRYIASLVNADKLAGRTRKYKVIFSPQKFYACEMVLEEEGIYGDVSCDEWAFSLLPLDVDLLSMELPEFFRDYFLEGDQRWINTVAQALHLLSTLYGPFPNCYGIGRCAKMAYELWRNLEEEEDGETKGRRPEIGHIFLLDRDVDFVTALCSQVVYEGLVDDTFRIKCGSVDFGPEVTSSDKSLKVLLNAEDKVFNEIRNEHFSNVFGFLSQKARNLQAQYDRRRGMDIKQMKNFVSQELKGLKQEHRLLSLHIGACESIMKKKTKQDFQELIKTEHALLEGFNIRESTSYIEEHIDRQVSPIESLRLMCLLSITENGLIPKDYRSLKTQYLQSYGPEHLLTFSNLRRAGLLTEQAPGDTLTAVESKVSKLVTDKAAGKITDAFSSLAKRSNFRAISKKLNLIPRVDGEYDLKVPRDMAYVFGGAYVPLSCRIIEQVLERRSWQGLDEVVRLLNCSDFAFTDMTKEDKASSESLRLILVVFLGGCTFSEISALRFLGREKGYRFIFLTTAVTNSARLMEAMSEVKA

T3: myc-Rabenosyn-5 (human) (UniProt Q9H1K0)
T3 sequence: T1 sequence

T4: myc-VPS45 (human) (UniProt Q9NRW7)
T4 sequence: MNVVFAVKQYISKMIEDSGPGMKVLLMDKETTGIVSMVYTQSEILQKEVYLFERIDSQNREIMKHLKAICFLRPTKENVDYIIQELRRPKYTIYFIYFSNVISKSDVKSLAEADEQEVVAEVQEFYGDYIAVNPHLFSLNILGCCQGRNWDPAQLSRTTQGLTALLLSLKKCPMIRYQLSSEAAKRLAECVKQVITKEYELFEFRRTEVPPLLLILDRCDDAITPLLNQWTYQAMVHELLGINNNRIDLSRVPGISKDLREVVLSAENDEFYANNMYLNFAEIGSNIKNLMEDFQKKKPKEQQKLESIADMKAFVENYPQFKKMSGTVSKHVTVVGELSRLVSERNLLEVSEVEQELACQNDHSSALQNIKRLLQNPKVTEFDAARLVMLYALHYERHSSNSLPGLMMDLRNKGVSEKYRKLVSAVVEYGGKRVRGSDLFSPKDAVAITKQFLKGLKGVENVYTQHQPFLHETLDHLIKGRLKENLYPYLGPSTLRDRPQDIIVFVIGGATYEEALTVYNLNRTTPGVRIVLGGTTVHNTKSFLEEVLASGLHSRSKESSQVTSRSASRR

B1: endogenous VIPAS39 (protein, UniProt Q9H9C1 1-493)
chain: MNRTKGDEEEYWNSSKFKAFTFDDEDDELSQLKESKRAVNSLRDFVDDDDDDDLERVSWSGEPVGSISWSIRETAGNSGSTHEGREQLKSRNSFSSYAQLPKPTSTYSLSSFFRGRTRPGSFQSLSDALSDTPAKSYAPELGRPKGEYRDYSNDWSPSDTVRRLRKGKVCSLERFRSLQDKLQLLEEAVSMHDGNVITAVLIFLKRTLSKEILFRELEVRQVALRHLIHFLKEIGDQKLLLDLFRFLDRTEELALSHYREHLNIQDPDKRKEFLKTCVGLPFSAEDSAHIQDHYTLLERQIIIEANDRHLESAGQTEIFRKHPRKASILNMPLVTTLFYSCFYHYTEAEGTFSSPVNLKKTFKIPDKQYVLTALAARAKLRAWNDVDALFTTKNWLGYTKKRAPIGFHRVVEILHKNNAPVQILQEYVNLVEDVDTKLNLATKFKCHDVVIDTYRDLKDRQQLLAYRSKVDKGSAEEEKIDALLSSSQIRWKN

Tests used:
Experiment in all cases: co-IP
GFP-Rabenosyn-5 (human) = target: T1, GFP-Rabenosyn-5 (human)
VPS33B-Myc-DDK (human) = target: T2, VPS33B-Myc-DDK (human)
myc-Rabenosyn-5 (human) = target: T3, myc-Rabenosyn-5 (human)
myc-VPS45 (human) = target: T4, myc-VPS45 (human)

Molecule	binding (GFP-Rabenosyn-5 (human))	binding (VPS33B-Myc-DDK (human))	binding (myc-Rabenosyn-5 (human))	binding (myc-VPS45 (human))
myc-ANK1 (from UniProt P16157 1-1881)	binds	–	–	–
B1	–	binds	binds	binds
